Test results taken from PubChem BioAssay AID342 (DTP/NCI, 2004).
The list does not hold the whole screen: it gathers some chemical classes. Not every dose and run of a compound is shown. T/C: endpoint of the treated group in % of that of the vehicle group. Schedules are NCI's codes, taken here to give the interval after Q, in days (D) or hours (H), and the number of doses after X. Some entries were tested several times; their values stand side by side, smallest first. Some schedules carry Z or #; the key to these is not given. Some T/C values carry the count of animals alive at the toxicity check; where neither a count nor a note follows, no animal had died by that day. Some T/C values are marked as having no survivor count here; that says nothing about deaths at the dose. Some entries give survivors of the animals treated and no T/C: the source files T/C as zero there, which appears to mark a toxic dose or a test without result, not a measured value. Counts of survivors are from the toxicity check, whose day is not always given; animals may have died later.

System: Swiss mice, Sarcoma 180 sc, mean tumor weight T/C
Experiment: NCI In Vivo Anticancer Drug Screen. Data for tumor model Sarcoma 180 (subcutaneous) in Swiss mice
Conditions: T/C endpoint: mean tumor weight, higher T/C = larger tumour
Protocol: The antitumor activity of compounds was measured in mice bearing transplantable tumors. Survival or tumor size were measured and the results are expressed as the measurement made in the treated group (T) divided by the measurement made in the vehicle treated control group (C). The tumor model used in this assay is Sarcoma 180 (subcutaneous) in Swiss mice

[1] = dose: 2.2 mg/kg/injection, schedule: Q#A X014 (ip), vehicle: methylcellulose (MC), evaluated on day 8

CN(CCCl)CC1OC(O)C(O)C(O)C1O (configuration not stated)
T/C (dose: 9.5 mg/kg/injection, schedule: Q#A X014 (ip), vehicle: saline, evaluated on day 8): 50 % of control [5 of 6 alive]
T/C (dose: 14.5 mg/kg/injection, schedule: Q#A X014 (ip), vehicle: saline, evaluated on day 8): 41 % of control
T/C (dose: 15.0 mg/kg/injection, schedule: Q#A X014 (ip), vehicle: saline, evaluated on day 8): 59 % of control
T/C (dose: 22.0 mg/kg/injection, schedule: Q#A X014 (ip), vehicle: methylcellulose (MC), evaluated on day 8): 66 % of control
T/C (dose: 22.0 mg/kg/injection, schedule: Q#A X014 (ip), vehicle: saline, evaluated on day 8): 32 and 61 % of control [4 of 6 alive]
T/C (dose: 22.5 mg/kg/injection, schedule: Q#A X014 (ip), vehicle: saline, evaluated on day 8): 30 % of control
T/C (dose: 33.0 mg/kg/injection, schedule: Q#A X014 (ip), vehicle: methylcellulose (MC), evaluated on day 8): 34 % of control [4 of 6 alive]
T/C (dose: 33.0 mg/kg/injection, schedule: Q#A X014 (ip), vehicle: saline, evaluated on day 8): 20 and 47 % of control [5 of 6 alive]
T/C (dose: 33.5 mg/kg/injection, schedule: Q#A X014 (ip), vehicle: saline, evaluated on day 8): 17 % of control [5 of 6 alive]
survivor count (dose: 50.0 mg/kg/injection, schedule: Q#A X014 (ip), vehicle: saline): 1 of 6

CCOP(=O)(CC)OCCCCOP(=O)(CC)OCC (configuration not stated)
T/C (dose: 4.0 mg/kg/injection, schedule: Q01DX007 (ip), vehicle: saline, evaluation day not shown): 96 % of control [survivor count not shown]
T/C (dose: 6.0 mg/kg/injection, schedule: Q01DX007 (ip), vehicle: saline, evaluation day not shown): 112 % of control [survivor count not shown]
T/C (dose: 8.0 mg/kg/injection, schedule: Q01DX007 (ip), vehicle: saline, evaluation day not shown): 117 % of control [survivor count not shown]

CCOP(C)(=O)OCCCCOP(C)(=O)OCC (configuration not stated)
T/C (dose: 10.0 mg/kg/injection, schedule: Q01DX007 (ip), vehicle: saline, evaluation day not shown): 90 % of control [survivor count not shown]
T/C (dose: 15.0 mg/kg/injection, schedule: Q01DX007 (ip), vehicle: saline, evaluation day not shown): 82 % of control [survivor count not shown]
T/C (dose: 20.0 mg/kg/injection, schedule: Q01DX007 (ip), vehicle: saline, evaluation day not shown): 84 % of control [survivor count not shown]

O=C(O)COc1ccc(N(CCCl)CCCl)cc1
T/C [1]: 55 [5 of 6 alive] and 68 % of control
T/C (dose: 3.3 mg/kg/injection, schedule: Q#A X014 (ip), vehicle: methylcellulose (MC), evaluated on day 8): 12 and 53 % of control
T/C (dose: 5.0 mg/kg/injection, schedule: Q#A X014 (ip), vehicle: methylcellulose (MC), evaluated on day 8): 10 and 26 % of control
T/C (dose: 7.5 mg/kg/injection, schedule: Q#A X014 (ip), vehicle: methylcellulose (MC), evaluated on day 8): 10 [5 of 6 alive] and 19 % of control
T/C (dose: 10.0 mg/kg/injection, schedule: Q01DX007 (ip), vehicle: other, evaluated on day 8): 6 % of control
T/C (dose: 15.0 mg/kg/injection, schedule: Q01DX007 (ip), vehicle: carboxymethylcellulose (CMC), evaluated on day 8): 15 % of control [5 of 7 alive]
T/C (dose: 15.0 mg/kg/injection, schedule: Q01DX007 (ip), vehicle: other, evaluated on day 8): 7 % of control [4 of 6 alive]
T/C (dose: 22.0 mg/kg/injection, schedule: Q01DX007 (ip), vehicle: carboxymethylcellulose (CMC), evaluated on day 8): 18 % of control [5 of 7 alive]
survivor count (dose: 33.0 mg/kg/injection, schedule: Q01DX007 (ip), vehicle: carboxymethylcellulose (CMC)): 4 of 7

O[C@H](CNCCCl)[C@H](O)CNCCCl
T/C (dose: 3.8 mg/kg/injection, schedule: Q#A X014 (ip), vehicle: carboxymethylcellulose (CMC), evaluated on day 8): 89 % of control
T/C (dose: 5.65 mg/kg/injection, schedule: Q#A X014 (ip), vehicle: carboxymethylcellulose (CMC), evaluated on day 8): 73 % of control
T/C (dose: 8.5 mg/kg/injection, schedule: Q#A X014 (ip), vehicle: carboxymethylcellulose (CMC), evaluated on day 8): 48 % of control
T/C (dose: 12.0 mg/kg/injection, schedule: Q01DX007 (ip), vehicle: carboxymethylcellulose (CMC), evaluated on day 8): 56 % of control
T/C (dose: 12.5 mg/kg/injection, schedule: Q#A X014 (ip), vehicle: carboxymethylcellulose (CMC), evaluated on day 8): 45 % of control
T/C (dose: 20.0 mg/kg/injection, schedule: Q01DX007 (ip), vehicle: carboxymethylcellulose (CMC), evaluated on day 8): 48 % of control [5 of 6 alive]

NC(Cc1ccc(N(CCCl)CCCl)c(Cl)c1)C(=O)O (configuration not stated)
T/C (dose: 0.31 mg/kg/injection, schedule: Q#A X014 (ip), vehicle: methylcellulose (MC), evaluated on day 8): 113 % of control
T/C (dose: 0.62 mg/kg/injection, schedule: Q#A X014 (ip), vehicle: methylcellulose (MC), evaluated on day 8): 86 % of control
T/C (dose: 1.25 mg/kg/injection, schedule: Q#A X014 (ip), vehicle: methylcellulose (MC), evaluated on day 8): 45 % of control [5 of 6 alive]
T/C [1]: 34 % of control [5 of 6 alive]
T/C (dose: 2.2 mg/kg/injection, schedule: Q#A X014 (ip), vehicle: saline, evaluated on day 8): 59 % of control
T/C (dose: 3.5 mg/kg/injection, schedule: Q#A X014 (ip), vehicle: saline, evaluated on day 8): 37 % of control
T/C (dose: 5.0 mg/kg/injection, schedule: Q#A X014 (ip), vehicle: saline, evaluated on day 8): 22 % of control
T/C (dose: 7.5 mg/kg/injection, schedule: Q#A X014 (ip), vehicle: saline, evaluated on day 8): 3 % of control [5 of 6 alive]

O=P(Nc1ncccn1)(N1CC1)N1CC1
T/C (dose: 7.0 mg/kg/injection, schedule: Q01DX007 (ip), vehicle: saline, evaluated on day 8): 66 and 76 % of control
T/C (dose: 10.0 mg/kg/injection, schedule: Q01DX007 (ip), vehicle: saline, evaluated on day 8): 29 and 61 % of control
T/C (dose: 15.0 mg/kg/injection, schedule: Q01DX007 (ip), vehicle: saline, evaluated on day 8): 27 [5 of 6 alive], 28 [4 of 6 alive], 34 % of control [5 of 6 alive]
T/C (dose: 23.0 mg/kg/injection, schedule: Q01DX007 (ip), vehicle: saline, evaluated on day 8): 25 % of control [5 of 6 alive]
survivor count (dose: 23.0 mg/kg/injection, schedule: Q01DX007 (ip), vehicle: saline): 1 of 6
survivor count (dose: 53.0 mg/kg/injection, schedule: Q01DX007 (ip), vehicle: saline): 0 of 6

CO/C(N)=N\[N+](=O)[O-]
T/C (dose: 93.0 mg/kg/injection, schedule: Q01DX007 (ip), vehicle: saline, evaluated on day 8): 67 % of control
T/C (dose: 140.0 mg/kg/injection, schedule: Q01DX007 (ip), vehicle: saline, evaluated on day 8): 83 % of control
survivor count (dose: 280.0 mg/kg/injection, schedule: Q01DX007 (ip), vehicle: saline): 2 of 6

Cn1cc(N(CCCl)CCCl)c(=O)[nH]c1=O
T/C (dose: 0.45 mg/kg/injection, schedule: Q#A X014 (ip), vehicle: methylcellulose (MC), evaluated on day 8): 58 and 61 % of control
T/C (dose: 0.65 mg/kg/injection, schedule: Q#A X014 (ip), vehicle: methylcellulose (MC), evaluated on day 8): 60 and 70 % of control
T/C (dose: 1.0 mg/kg/injection, schedule: Q#A X014 (ip), vehicle: methylcellulose (MC), evaluated on day 8): 13, 52, 62 % of control [5 of 6 alive]
T/C (dose: 1.1 mg/kg/injection, schedule: Q#A X014 (ip), vehicle: methylcellulose (MC), evaluated on day 8): 7 % of control [5 of 6 alive]
T/C (dose: 1.5 mg/kg/injection, schedule: Q#A X014 (ip), vehicle: methylcellulose (MC), evaluated on day 8): 5 [4 of 6 alive], 28 [5 of 6 alive], 40 % of control
T/C (dose: 1.65 mg/kg/injection, schedule: Q#A X014 (ip), vehicle: methylcellulose (MC), evaluated on day 8): 15 % of control
survivor count (dose: 2.5 mg/kg/injection, schedule: Q#A X014 (ip), vehicle: methylcellulose (MC)): 1 of 6

CCOP(=O)(NCCCO)N(CCCl)CCCl (configuration not stated)
T/C (dose: 150.0 mg/kg/injection, schedule: Q#A X014 (ip), vehicle: methylcellulose (MC), evaluated on day 8): 69 % of control
survivor count (dose: 200.0 mg/kg/injection, schedule: Q#A X014 (ip), vehicle: methylcellulose (MC)): 3 of 6
